No constants are given. Whether binding was seen depends on the method and setting. In cells and extracts the contact can be indirect. Some binding calls cover weakened binding; strength is not graded here.
Columns and labels:
[1] = target: eIF4E (human (endogenous in CRC, EC and PDAC cell lines)) (UniProt P06730); assay: co-IP; eIF4E immunoprecipitated with anti-eIF4E antibody (sc-271480) and Protein G PLUS-Agarose from cell lysates (50 mM Tris-HCl pH 7.5, 150 mM NaCl, 1 mM EDTA, 1% IGEPAL, 10% glycerol), 4°C; cells treated with vehicle or 20 uM DT-061 for 3 h; immunoblot
[2] = target: eIF4E (human (endogenous in CRC, EC and PDAC cell lines)) (UniProt P06730); assay: pull-down; cap affinity assay: m7GTP-agarose beads capture eIF4E and eIF4E-associated proteins from cell lysates (50 mM Tris pH 7.4, 100 mM NaCl, 1 mM EDTA, 1% Triton X-100), overnight at 4°C, 4 washes; cells treated with vehicle or 20 uM DT-061 for 3 h; immunoblot

Sequences of proteins named here, by UniProt entry; tags and fusion partners are left off.
UniProt P06730: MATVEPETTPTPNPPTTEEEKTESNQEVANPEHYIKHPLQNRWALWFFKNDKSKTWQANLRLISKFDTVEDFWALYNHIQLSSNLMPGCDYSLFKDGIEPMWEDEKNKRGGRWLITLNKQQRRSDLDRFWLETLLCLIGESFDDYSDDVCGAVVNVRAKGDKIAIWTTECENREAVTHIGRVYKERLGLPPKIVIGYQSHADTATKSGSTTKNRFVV

binding [1]: binds
binding [2]: binds
B1: eIF4E-binding protein 2 (4E-BP2) (protein, UniProt Q13542 1-120)
chain: MSSSAGSGHQPSQSRAIPTRTVAISDAAQLPHDYCTTPGGTLFSTTPGGTRIIYDRKFLLDRRNSPMAQTPPCHLPNIPGVTSPGTLIEDSKVEVNNLNNLNNHDRKHAVGDDAQFEMDI
